# Data as given in PubChem BioAssay AID1053208 (Peter MacCallum Cancer Centre, 2014)
# Test: 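Genes whose silencing cuts survival of bone tumour cells only with doxorubicin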 (primary screen)
# System: mouse osteosarcoma cells, early-passage culture from an engineered mouse model of fibroblastic bone tumour
# Knock-down reagent: siRNA pool against mouse genes, 40 nM
# Timing: about 120 h (48 h before drug, then 72 h with drug)
# Treatment: doxorubicin 100 nM for 72 h, roughly 30-40% inhibitory dose
# Detection: 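Luminescent ATP signal taken as viability with or without 100 nM doxorubicin for 72 h; mean of two wells set against non-targeting siRNA and turned into robust z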
# Direction: viability z-score with doxorubicin and doxorubicin viability vs non-targeting: higher = more viable cells under doxorubicin; viability z-score without drug: higher = more viable cells with knock-down alone; z-score of drug to no-drug ratio: higher = less drug sensitisation by knock-down
# Active means: 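Called active if knock-down leaves viability unchanged without drug (z within -2 to 2) but lowers it with doxorubicin (z at or under -2)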
# Here is one part, drawn at random, of about 17,000 reagents. 788 of all reagents (4.7%) were called active. 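Calls rest on z-score classes alone; an extra cut-off of viability at most 70% of control was not applied to them.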 Entries without a mark were called inactive.
Gene,combined z-score class,viability z-score with doxorubicin,viability z-score without drug,z-score of drug to no-drug ratio,doxorubicin viability vs non-targeting
Cmtr1 (cap methyltransferase 1),high cell count with doxorubicin only,3.15,1.18,2.47,1.22
Cpox (coproporphyrinogen oxidase),no change with or without drug,0.11,1.69,-0.9,0.95
Ctbp1 (C-terminal binding protein 1),no change with or without drug,0.79,-0.51,1.35,1.01
Casp3 (caspase 3),no change with or without drug,0.22,0.51,0,0.96
"Pccb (propionyl Coenzyme A carboxylase, beta polypeptide)",no change with or without drug,0.56,-0.17,0.79,0.99
"Arg1 (arginase, liver)",no change with or without drug,-0.34,0.34,-0.45,0.91
Papola (poly (A) polymerase alpha),no change with or without drug,0.34,1.01,-0.22,0.97
Zscan2 (zinc finger and SCAN domain containing 2),no change with or without drug,-0.56,1.18,-1.24,0.89
"Tdo2 (tryptophan 2,3-dioxygenase)",no change with or without drug,-1.8,-0.51,-1.46,0.78
"Arrb1 (arrestin, beta 1)",no change with or without drug,-0.22,1.18,-0.9,0.92
Skint11 (selection and upkeep of intraepithelial T cells 11),no change with or without drug,-1.01,0.67,-1.35,0.85
Try4 (trypsin 4),no change with or without drug,-0.45,0,-0.34,0.9
Ccdc50 (coiled-coil domain containing 50),no change with or without drug,0.22,0.17,0.22,0.96

Limited to “combined z-score class” (2 entries from above):
Cmtr1 (cap methyltransferase 1) = high cell count with doxorubicin only
Cpox (coproporphyrinogen oxidase) = no change with or without drug

The results go on.
Gene,combined z-score class,viability z-score with doxorubicin,viability z-score without drug,z-score of drug to no-drug ratio,doxorubicin viability vs non-targeting
"Klra20 (killer cell lectin-like receptor subfamily A, member 20)",no change with or without drug,-0.45,0.51,-0.67,0.9
Rpl4 (ribosomal protein L4),low cell count with and without drug,-6.41,-3.54,-5.4,0.37
Dusp22 (dual specificity phosphatase 22),no change with or without drug,1.57,0.51,1.35,1.08
4930579K19Rik (RIKEN cDNA 4930579K19 gene),no change with or without drug,-0.34,-1.52,0.9,0.91
Or14j1 (olfactory receptor family 14 subfamily J member 1),no change with or without drug,-0.9,-1.18,0,0.86
"Prkab1 (protein kinase, AMP-activated, beta 1 non-catalytic subunit)",no change with or without drug,0.45,0.17,0.45,0.98
Pex19 (peroxisomal biogenesis factor 19),no change with or without drug,1.57,0.51,1.35,1.08
